PubChem BioAssay AID1259254 – NCATS | 2017
Shown is an unselected part of about 59,000 deposited reagents. Of all reagents, about 1,550 (2.6%) are marked active. 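G2 share is only a proxy for re-replication; each gene was hit by three separate siRNAs, and active genes were retested.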 Entries without a mark were called inactive. Reagents against one gene are numbered here. Not all columns of the deposit are shown. Not given: the amount of reagent.

Purpose: 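Finding genes that stop cells copying their DNA twice in one cycle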 (primary screen)
System: human HCT116 colorectal cancer cells
Reagent: single siRNA against human genes
Duration: 3 days
Read-out: 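Nuclei stained with Hoechst and imaged; cell-cycle phase assigned by DNA content; G2 share scaled per plate, non-targeting siRNA 0%, GMNN siRNA 100%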
Direction: G2 robust z-score and G2 cells, % of GMNN control: higher = more G2 cells, more excess DNA replication
Rule for the call: 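An siRNA counts as active if its G2 robust z-score lies at least 5 MADs above the screen median; here such calls match roughly 38% of GMNN control or more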

With CCT2 #1, how do the results read?
G2 robust z-score: 0.837; G2 cells, % of GMNN control: 8.86

How did the screen score CCT2 #2?
G2 robust z-score: 4.31; G2 cells, % of GMNN control: 33.3

Which result is listed for CCT2 #3?
G2 robust z-score: 1.1; G2 cells, % of GMNN control: 10.7

For ITLN2 #1, how do the results read?
G2 robust z-score: 1.01; G2 cells, % of GMNN control: 10

With ITLN2 #2, what was measured?
G2 robust z-score: 0.713; G2 cells, % of GMNN control: 7.98

How did the screen score ITLN2 #3?
G2 robust z-score: -0.165; G2 cells, % of GMNN control: 1.81

What is on record for OR1I1 #1?
G2 robust z-score: -0.71; G2 cells, % of GMNN control: -2.03

Which result is listed for OR1I1 #2?
G2 robust z-score: 0.318; G2 cells, % of GMNN control: 5.2

What is on record for OR1I1 #3?
G2 robust z-score: -0.147; G2 cells, % of GMNN control: 1.94

For CYLD #1, how do the results read?
G2 robust z-score: 5.79 (active); G2 cells, % of GMNN control: 43.7

For CYLD #2, how do the results read?
G2 robust z-score: -0.532; G2 cells, % of GMNN control: -0.778

Which result is listed for CYLD #3?
G2 robust z-score: 0.131; G2 cells, % of GMNN control: 3.89

2 entries from above, limited to “G2 cells, % of GMNN control”.
ITLN2 #3	1.81
OR1I1 #1	-2.03
